Laboratory results from publication PMC12539210.
Results are given in words; binding and its absence hold for the method and conditions named. In cells and extracts the contact can be indirect. Some entries that bind do so weakly or less than the wild type. Where a sequence is shown, tags or fusion partners need not be part of it. Each block holds one binder with its values, some of them ahead of it.

By UniProt entry, the sequences of proteins in these tests, tags left out. Where a name states a change or a piece, a line headed by the entry shows the natural chain unless it says otherwise. Chains listed by the source or under a name are the forms on record and can include a tag or linker.
V5-tagged DRP1 (mouse pEF6-DRP1) (Q8K1M6, form named): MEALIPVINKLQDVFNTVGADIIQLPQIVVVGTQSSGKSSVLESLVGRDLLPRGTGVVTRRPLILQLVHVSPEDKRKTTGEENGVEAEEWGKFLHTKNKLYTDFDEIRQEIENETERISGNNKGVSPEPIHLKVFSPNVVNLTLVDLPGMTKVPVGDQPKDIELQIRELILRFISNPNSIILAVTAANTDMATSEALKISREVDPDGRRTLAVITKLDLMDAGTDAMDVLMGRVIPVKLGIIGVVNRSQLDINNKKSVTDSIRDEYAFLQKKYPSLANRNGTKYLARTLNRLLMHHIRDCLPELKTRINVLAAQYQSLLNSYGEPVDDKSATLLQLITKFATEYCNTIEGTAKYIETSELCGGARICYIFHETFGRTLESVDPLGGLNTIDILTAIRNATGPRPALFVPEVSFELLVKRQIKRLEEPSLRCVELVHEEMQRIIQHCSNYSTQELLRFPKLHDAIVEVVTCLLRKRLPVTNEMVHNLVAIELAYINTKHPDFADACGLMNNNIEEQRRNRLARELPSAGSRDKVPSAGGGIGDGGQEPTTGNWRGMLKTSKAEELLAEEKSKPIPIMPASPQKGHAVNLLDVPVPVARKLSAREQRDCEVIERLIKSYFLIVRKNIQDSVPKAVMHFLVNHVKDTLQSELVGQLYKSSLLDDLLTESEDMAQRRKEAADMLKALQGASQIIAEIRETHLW
UniProt O00429: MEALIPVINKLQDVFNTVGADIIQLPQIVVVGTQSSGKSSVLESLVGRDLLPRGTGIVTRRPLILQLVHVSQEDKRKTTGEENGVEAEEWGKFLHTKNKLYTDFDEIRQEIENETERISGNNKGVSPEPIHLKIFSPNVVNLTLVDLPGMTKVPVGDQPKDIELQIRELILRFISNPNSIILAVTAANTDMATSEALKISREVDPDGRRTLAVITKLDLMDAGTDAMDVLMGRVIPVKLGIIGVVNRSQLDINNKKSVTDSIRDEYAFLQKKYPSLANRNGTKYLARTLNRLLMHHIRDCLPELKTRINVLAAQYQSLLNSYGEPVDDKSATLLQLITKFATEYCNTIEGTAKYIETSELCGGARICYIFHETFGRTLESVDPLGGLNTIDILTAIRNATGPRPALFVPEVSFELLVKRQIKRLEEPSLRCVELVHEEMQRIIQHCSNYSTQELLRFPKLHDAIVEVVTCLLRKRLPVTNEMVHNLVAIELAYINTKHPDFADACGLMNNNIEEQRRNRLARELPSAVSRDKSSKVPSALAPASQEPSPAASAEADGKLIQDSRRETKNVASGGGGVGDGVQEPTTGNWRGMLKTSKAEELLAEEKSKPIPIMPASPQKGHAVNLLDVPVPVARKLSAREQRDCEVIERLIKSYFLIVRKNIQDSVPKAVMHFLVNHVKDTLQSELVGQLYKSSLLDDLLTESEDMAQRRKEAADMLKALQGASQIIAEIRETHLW

Experiments:
[1] = target: V5-tagged DRP1 (mouse pEF6-DRP1) (mouse) (UniProt Q8K1M6); experiment: co-IP; HEK293T cells co-transfected for 24 h, lysed in RIPA buffer with benzonase; IP with anti-DRP1 antibody, protein G Dynabeads; immunoblot with anti-V5
[2] = target: dynamin-related protein 1 (DRP1), endogenous in THP1 cells (human (endogenous in THP1)) (UniProt O00429); experiment: co-IP; PMA-differentiated THP1 cells cross-linked with 1% formaldehyde for 10 min, lysed in RIPA buffer; IP with anti-DRP1 or isotype control antibody, protein G Dynabeads; immunoblot of endogenous proteins

binding [1]: binds
B1: HDAC6-V5 (pEF6-HDAC6-V5) (enzyme, UniProt Q9Z2V5 1-1149)
chain: MTSTGQDSSTRQRKSRHNPQSPLQESSATLKRGGKKCAVPHSSPNLAEVKKKGKMKKLSQPAEEDLVVGLQGLDLNPETRVPVGTGLVFDEQLNDFHCLWDDSFPESPERLHAIREQLILEGLLGRCVSFQARFAEKEELMLVHSLEYIDLMETTQYMNEGELRVLAETYDSVYLHPNSYSCACLATGSVLRLVDALMGAEIRNGMAVIRPPGHHAQHNLMDGYCMFNHLAVAARYAQKKHRIQRVLIVDWDVHHGQGTQFIFDQDPSVLYFSIHRYEHGRFWPHLKASNWSTIGFGQGQGYTINVPWNQTGMRDADYIAAFLHILLPVASEFQPQLVLVAAGFDALHGDPKGEMAATPAGFAHLTHLLMGLAGGKLILSLEGGYNLRALAKGVSASLHTLLGDPCPMLESCVVPCASAQTSIYCTLEALEPFWEVLERSVETQEEDEVEEAVLEEEEEEGGWEATALPMDTWPLLQNRTGLVYDEKMMSHCNLWDNHHPETPQRILRIMCHLEEVGLAARCLILPARPALDSELLTCHSAEYVEHLRTTEKMKTRDLHREGANFDSIYICPSTFACAKLATGAACRLVEAVLSGEVLNGIAVVRPPGHHAEPNAACGFCFFNSVAVAARHAQIIAGRALRILIVDWDVHHGNGTQHIFEDDPSVLYVSLHRYDRGTFFPMGDEGASSQVGRDAGIGFTVNVPWNGPRMGDADYLAAWHRLVLPIAYEFNPELVLISAGFDAAQGDPLGGCQVTPEGYAHLTHLLMGLAGGRIILILEGGYNLASISESMAACTHSLLGDPPPQLTLLRPPQSGALVSISEVIQVHRKYWRSLRLMKMEDKEECSSSRLVIKKLPPTASPVSAKEMTTPKGKVPEESVRKTIAALPGKESTLGQAKSKMAKAVLAQGQSSEQAAKGTTLDLATSKETVGGATTDLWASAAAPENFPNQTTSVEALGETEPTPPASHTNKQTTGASPLQGVTAQQSLQLGVLSTLELSREAEEAHDSEEGLLGEAAGGQDMNSLMLTQGFGDFNTQDVFYAVTPLSWCPHLMAVCPIPAAGLDVSQPCKTCGTVQENWVCLTCYQVYCSRYVNAHMVCHHEASEHPLVLSCVDLSTWCYVCQAYVHHEDLQDVKNAAHQNKFGEDMPHSH

binding [2]: binds
B2: histone deacetylase 7 (HDAC7), endogenous in THP1 cells (enzyme, UniProt Q8WUI4 1-952)
chain: MDLRVGQRPPVEPPPEPTLLALQRPQRLHHHLFLAGLQQQRSVEPMRLSMDTPMPELQVGPQEQELRQLLHKDKSKRSAVASSVVKQKLAEVILKKQQAALERTVHPNSPGIPYRTLEPLETEGATRSMLSSFLPPVPSLPSDPPEHFPLRKTVSEPNLKLRYKPKKSLERRKNPLLRKESAPPSLRRRPAETLGDSSPSSSSTPASGCSSPNDSEHGPNPILGSEALLGQRLRLQETSVAPFALPTVSLLPAITLGLPAPARADSDRRTHPTLGPRGPILGSPHTPLFLPHGLEPEAGGTLPSRLQPILLLDPSGSHAPLLTVPGLGPLPFHFAQSLMTTERLSGSGLHWPLSRTRSEPLPPSATAPPPPGPMQPRLEQLKTHVQVIKRSAKPSEKPRLRQIPSAEDLETDGGGPGQVVDDGLEHRELGHGQPEARGPAPLQQHPQVLLWEQQRLAGRLPRGSTGDTVLLPLAQGGHRPLSRAQSSPAAPASLSAPEPASQARVLSSSETPARTLPFTTGLIYDSVMLKHQCSCGDNSRHPEHAGRIQSIWSRLQERGLRSQCECLRGRKASLEELQSVHSERHVLLYGTNPLSRLKLDNGKLAGLLAQRMFVMLPCGGVGVDTDTIWNELHSSNAARWAAGSVTDLAFKVASRELKNGFAVVRPPGHHADHSTAMGFCFFNSVAIACRQLQQQSKASKILIVDWDVHHGNGTQQTFYQDPSVLYISLHRHDDGNFFPGSGAVDEVGAGSGEGFNVNVAWAGGLDPPMGDPEYLAAFRIVVMPIAREFSPDLVLVSAGFDAAEGHPAPLGGYHVSAKCFGYMTQQLMNLAGGAVVLALEGGHDLTAICDASEACVAALLGNRVDPLSEEGWKQKPNLNAIRSLEAVIRVHSKYWGCMQRLASCPDSWVPRVPGADKEEVEAVTALASLSVGILAEDRPSEQLVEEEEPMNL
